Laboratory results as given in article doi:10.1101/2023.02.08.527750.
Read-outs that look alike come from different tables or passages of the source. No constants are given. Whether binding was seen depends on the method and setting. Binding seen in cells or lysates may run through a third protein. These calls come from enrichment with a bait or labelling near it, and not all partners need be listed. Tags and fused reporters may be left off the sequences shown.

The chains behind the UniProt entries cited, without tags or fusion partners.
UniProt Q9Y265: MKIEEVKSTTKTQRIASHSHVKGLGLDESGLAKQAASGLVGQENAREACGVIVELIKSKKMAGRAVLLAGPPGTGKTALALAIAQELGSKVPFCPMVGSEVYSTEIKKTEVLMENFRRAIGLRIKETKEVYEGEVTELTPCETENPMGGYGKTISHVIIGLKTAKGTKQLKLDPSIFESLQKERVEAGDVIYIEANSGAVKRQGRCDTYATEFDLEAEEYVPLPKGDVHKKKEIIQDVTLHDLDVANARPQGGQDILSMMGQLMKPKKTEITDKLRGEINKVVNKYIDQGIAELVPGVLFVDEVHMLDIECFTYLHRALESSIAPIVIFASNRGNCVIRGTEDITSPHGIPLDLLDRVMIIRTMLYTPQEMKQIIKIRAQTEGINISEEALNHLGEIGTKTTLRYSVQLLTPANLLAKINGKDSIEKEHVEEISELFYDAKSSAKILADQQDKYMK
UniProt P15531: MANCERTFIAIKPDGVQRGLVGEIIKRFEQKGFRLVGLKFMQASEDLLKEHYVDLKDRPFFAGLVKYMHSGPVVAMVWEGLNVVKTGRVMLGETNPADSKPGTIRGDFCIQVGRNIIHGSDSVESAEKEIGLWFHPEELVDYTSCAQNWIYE

B1: NME4 (endogenous) (protein, UniProt O00746 29-187)
chain: GSGGPSWTRERTLVAVKPDGVQRRLVGDVIQRFERRGFTLVGMKMLQAPESVLAEHYQDLRRKPFYPALIRYMSSGPVVAMVWEGYNVVRASRAMIGHTDSAEAAPGTIRGDFSVHISRNVIHASDSVEGAQREIQLWFQSSELVSWADGGQHSSIHPA
B2: ATP9A (endogenous) (protein, UniProt O75110 1-1047)
chain: MTDNIPLQPVRQKKRMDSRPRAGCCEWLRCCGGGEARPRTVWLGHPEKRDQRYPRNVINNQKYNFFTFLPGVLFNQFKYFFNLYFLLLACSQFVPEMRLGALYTYWVPLGFVLAVTVIREAVEEIRCYVRDKEVNSQVYSRLTARGTVKVKSSNIQVGDLIIVEKNQRVPADMIFLRTSEKNGSCFLRTDQLDGETDWKLRLPVACTQRLPTAADLLQIRSYVYAEEPNIDIHNFVGTFTREDSDPPISESLSIENTLWAGTVVASGTVVGVVLYTGRELRSVMNTSNPRSKIGLFDLEVNCLTKILFGALVVVSLVMVALQHFAGRWYLQIIRFLLLFSNIIPISLRVNLDMGKIVYSWVIRRDSKIPGTVVRSSTIPEQLGRISYLLTDKTGTLTQNEMIFKRLHLGTVAYGLDSMDEVQSHIFSIYTQQSQDPPAQKGPTLTTKVRRTMSSRVHEAVKAIALCHNVTPVYESNGVTDQAEAEKQYEDSCRVYQASSPDEVALVQWTESVGLTLVGRDQSSMQLRTPGDQILNFTILQIFPFTYESKRMGIIVRDESTGEITFYMKGADVVMAGIVQYNDWLEEECGNMAREGLRVLVVAKKSLAEEQYQDFEARYVQAKLSVHDRSLKVATVIESLEMEMELLCLTGVEDQLQADVRPTLETLRNAGIKVWMLTGDKLETATCTAKNAHLVTRNQDIHVFRLVTNRGEAHLELNAFRRKHDCALVISGDSLEVCLKYYEYEFMELACQCPAVVCCRCAPTQKAQIVRLLQERTGKLTCAVGDGGNDVSMIQESDCGVGVEGKEGKQASLAADFSITQFKHLGRLLMVHGRNSYKRSAALSQFVIHRSLCISTMQAVFSSVFYFASVPLYQGFLIIGYSTIYTMFPVFSLVLDKDVKSEVAMLYPELYKDLLKGRPLSYKTFLIWVLISIYQGSTIMYGALLLFESEFVHIVAISFTSLILTELLMVALTIQTWHWLMTVAELLSLACYIASLVFLHEFIDVYFIATLSFLWKVSVITLVSCLPLYVLKYLRRRFSPPSYSKLTS

Columns and labels:
[1] = target: T1, ITFG1-Myc (full-length ITFG1 with a Myc tag at the C-terminal) (human) (UniProt Q8TB96); test: affinity purification with mass spectrometry
T1 sequence: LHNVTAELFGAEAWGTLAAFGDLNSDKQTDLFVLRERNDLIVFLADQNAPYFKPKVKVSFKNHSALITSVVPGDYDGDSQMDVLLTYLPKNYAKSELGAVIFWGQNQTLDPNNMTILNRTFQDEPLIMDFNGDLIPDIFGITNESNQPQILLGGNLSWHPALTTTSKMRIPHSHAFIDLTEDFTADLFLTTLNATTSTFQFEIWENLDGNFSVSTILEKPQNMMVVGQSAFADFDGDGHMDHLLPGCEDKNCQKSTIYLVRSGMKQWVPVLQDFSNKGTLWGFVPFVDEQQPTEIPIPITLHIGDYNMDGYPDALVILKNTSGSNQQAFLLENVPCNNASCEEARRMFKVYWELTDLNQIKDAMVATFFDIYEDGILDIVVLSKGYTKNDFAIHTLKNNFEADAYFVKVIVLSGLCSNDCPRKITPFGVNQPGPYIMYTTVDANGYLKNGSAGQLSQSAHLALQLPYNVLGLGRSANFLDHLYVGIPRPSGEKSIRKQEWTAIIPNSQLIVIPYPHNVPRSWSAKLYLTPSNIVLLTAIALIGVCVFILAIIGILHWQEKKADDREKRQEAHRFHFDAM

[2] = target: T1, ITFG1-Myc (full-length ITFG1 with a Myc tag at the C-terminal) (human); test: affinity purification with mass spectrometry; remark: listed apart in the source

| Molecule | binding [1] | binding [2] |
| --- | --- | --- |
| RUVBL1 (endogenous) (from UniProt Q9Y265 1-456) | binds | – |
| NME1 (endogenous) (from UniProt P15531 1-152) | binds | – |
| B1 | – | binds |
| B2 | – | binds |
